In article PMC5811984:
No constants are given. Whether binding was seen depends on the method and setting. In cells and extracts the contact can be indirect. Some binding calls cover weakened binding; strength is not graded here. Sequences can lack the tags named with a protein.

Protein sequences, listed by entry. Tags and fused reporters are not part of them.
UniProt Q5S007: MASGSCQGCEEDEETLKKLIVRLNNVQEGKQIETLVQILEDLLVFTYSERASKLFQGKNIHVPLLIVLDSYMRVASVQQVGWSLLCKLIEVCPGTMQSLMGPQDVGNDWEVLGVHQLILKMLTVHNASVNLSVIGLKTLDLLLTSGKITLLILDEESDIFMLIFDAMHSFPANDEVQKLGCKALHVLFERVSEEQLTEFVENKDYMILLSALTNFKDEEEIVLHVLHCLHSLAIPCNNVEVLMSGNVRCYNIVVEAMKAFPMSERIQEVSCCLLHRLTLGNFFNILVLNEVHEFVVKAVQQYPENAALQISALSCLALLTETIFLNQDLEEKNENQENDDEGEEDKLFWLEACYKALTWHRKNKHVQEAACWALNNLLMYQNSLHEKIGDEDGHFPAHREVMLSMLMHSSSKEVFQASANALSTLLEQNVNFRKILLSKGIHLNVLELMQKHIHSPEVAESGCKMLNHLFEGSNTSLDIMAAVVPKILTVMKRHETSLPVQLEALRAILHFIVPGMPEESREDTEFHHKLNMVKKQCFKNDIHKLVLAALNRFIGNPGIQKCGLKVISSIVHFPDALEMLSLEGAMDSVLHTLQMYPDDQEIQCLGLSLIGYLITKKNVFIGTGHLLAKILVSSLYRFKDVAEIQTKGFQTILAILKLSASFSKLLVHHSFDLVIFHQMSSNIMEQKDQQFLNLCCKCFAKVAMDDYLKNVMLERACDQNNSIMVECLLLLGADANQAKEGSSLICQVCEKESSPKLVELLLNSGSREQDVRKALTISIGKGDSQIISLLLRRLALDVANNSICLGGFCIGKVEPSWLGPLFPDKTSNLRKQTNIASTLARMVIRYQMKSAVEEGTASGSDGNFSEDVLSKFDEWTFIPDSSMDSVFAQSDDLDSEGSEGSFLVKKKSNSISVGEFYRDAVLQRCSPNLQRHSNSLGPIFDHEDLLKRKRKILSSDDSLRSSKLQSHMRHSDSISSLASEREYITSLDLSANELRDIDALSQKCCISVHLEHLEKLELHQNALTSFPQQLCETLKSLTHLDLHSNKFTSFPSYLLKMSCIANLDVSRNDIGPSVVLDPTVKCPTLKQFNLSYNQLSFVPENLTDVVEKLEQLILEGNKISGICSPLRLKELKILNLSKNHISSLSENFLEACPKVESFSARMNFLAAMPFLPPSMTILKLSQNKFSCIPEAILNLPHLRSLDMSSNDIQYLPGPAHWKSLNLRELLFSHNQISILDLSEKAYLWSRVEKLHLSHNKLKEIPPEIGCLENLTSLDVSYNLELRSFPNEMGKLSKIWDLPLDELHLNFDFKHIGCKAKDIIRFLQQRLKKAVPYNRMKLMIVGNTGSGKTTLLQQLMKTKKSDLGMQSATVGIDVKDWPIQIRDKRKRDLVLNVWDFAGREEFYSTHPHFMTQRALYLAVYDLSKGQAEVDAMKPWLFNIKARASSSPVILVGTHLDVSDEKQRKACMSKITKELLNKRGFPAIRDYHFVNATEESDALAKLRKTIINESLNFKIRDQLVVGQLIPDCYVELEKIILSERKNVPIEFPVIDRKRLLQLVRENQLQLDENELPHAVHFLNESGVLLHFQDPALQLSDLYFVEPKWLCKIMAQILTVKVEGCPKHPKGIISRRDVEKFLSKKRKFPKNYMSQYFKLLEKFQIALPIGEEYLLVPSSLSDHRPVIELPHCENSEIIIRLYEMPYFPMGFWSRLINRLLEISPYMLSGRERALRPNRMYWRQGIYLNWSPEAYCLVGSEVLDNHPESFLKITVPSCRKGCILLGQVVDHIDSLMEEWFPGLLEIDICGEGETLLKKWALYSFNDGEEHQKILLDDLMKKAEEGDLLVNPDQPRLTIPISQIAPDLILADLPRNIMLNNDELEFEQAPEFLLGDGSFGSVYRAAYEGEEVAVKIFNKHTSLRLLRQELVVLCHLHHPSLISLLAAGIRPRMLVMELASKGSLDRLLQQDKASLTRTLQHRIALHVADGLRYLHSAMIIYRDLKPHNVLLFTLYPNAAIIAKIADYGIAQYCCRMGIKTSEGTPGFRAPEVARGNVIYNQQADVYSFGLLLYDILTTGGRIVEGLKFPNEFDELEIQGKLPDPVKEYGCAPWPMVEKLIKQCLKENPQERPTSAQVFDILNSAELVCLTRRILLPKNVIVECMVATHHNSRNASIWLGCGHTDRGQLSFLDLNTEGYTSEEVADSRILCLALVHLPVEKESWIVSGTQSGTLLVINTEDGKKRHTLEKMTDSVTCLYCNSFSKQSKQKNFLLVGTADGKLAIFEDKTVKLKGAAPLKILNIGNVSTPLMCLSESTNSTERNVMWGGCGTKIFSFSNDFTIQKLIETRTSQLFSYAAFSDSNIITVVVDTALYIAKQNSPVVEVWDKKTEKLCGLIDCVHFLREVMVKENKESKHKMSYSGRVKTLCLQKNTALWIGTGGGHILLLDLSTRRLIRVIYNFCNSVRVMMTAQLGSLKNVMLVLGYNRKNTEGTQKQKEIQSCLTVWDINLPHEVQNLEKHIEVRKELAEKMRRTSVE

Target: Myc-tagged LRRK2 (leucine-rich repeat kinase 2), wild-type (UniProt Q5S007)
Assay: co-IP; HEK-293 co-transfected with myc-LRRK2 and V5-Rab; lysate (50 mM Tris-HCl pH 7.5, 0.5% TX-100, 150 mM NaCl, 0.5 mM EGTA) immunoprecipitated with anti-myc on protein-G-agarose overnight at 4°C; blotted with anti-V5

binding: binds
B1: V5-tagged Rab3c (protein, UniProt Q96E17 1-227)
chain: MRHEAPMQMASAQDARYGQKDSSDQNFDYMFKLLIIGNSSVGKTSFLFRYADDSFTSAFVSTVGIDFKVKTVFKNEKRIKLQIWDTAGQERYRTITTAYYRGAMGFILMYDITNEESFNAVQDWSTQIKTYSWDNAQVILVGNKCDMEDERVISTERGQHLGEQLGFEFFETSAKDNINVKQTFERLVDIICDKMSESLETDPAITAAKQNTRLKETPPPPQPNCAC
